Read-outs that look alike come from different tables or passages of the source. These are yes or no findings as the source states them, for the method shown. Binding seen in cells or lysates may run through a third protein. Some results given as binding are weak or reduced against the parent protein; the word gives no strength. Tags and fused reporters may be left off the sequences shown. Blank lines part the entries; values can stand above or below the molecule they belong to.
Key:
Test in all cases: co-IP
[1] = target: T1, FH-full-length ZCCHC4 (HA and Flag tagged), overexpressed in HEK 293T cells (human) (UniProt Q9H5U6)
T1 sequence: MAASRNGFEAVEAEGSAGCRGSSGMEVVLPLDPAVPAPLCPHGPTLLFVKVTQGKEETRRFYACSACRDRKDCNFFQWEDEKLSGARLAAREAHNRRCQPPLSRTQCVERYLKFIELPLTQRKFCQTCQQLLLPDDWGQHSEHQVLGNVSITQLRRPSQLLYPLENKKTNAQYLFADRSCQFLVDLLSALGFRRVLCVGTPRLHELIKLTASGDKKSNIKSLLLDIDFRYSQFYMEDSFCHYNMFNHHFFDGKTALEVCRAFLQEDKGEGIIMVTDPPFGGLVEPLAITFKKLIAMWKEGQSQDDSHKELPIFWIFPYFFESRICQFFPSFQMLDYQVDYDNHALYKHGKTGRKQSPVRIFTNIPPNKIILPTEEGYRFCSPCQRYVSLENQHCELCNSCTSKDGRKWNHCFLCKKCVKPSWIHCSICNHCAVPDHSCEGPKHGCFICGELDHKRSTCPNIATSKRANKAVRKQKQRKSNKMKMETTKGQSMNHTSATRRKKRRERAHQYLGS

The chains behind the UniProt entries cited, without tags or fusion partners.
UniProt O15372: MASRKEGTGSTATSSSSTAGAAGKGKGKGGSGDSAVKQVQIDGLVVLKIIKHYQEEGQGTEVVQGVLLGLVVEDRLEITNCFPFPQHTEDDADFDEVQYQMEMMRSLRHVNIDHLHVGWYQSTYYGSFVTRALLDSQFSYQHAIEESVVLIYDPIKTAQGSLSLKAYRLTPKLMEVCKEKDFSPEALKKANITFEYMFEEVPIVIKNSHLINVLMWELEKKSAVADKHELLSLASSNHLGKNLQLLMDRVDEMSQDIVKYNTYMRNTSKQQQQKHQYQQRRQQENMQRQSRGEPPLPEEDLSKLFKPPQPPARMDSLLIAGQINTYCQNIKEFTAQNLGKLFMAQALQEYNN

[2] = target: T2, ZCCHC4-FH (HA and Flag tagged full-length ZCCHC4), stably expressed in HeLa cells (human) (UniProt Q9H5U6)
T2 sequence: T1 sequence

[3] = target: T1, FH-full-length ZCCHC4 (HA and Flag tagged), overexpressed in HEK 293T cells (human); remark: listed apart in the source
[4] = target: T2, ZCCHC4-FH (HA and Flag tagged full-length ZCCHC4), stably expressed in HeLa cells (human); remark: listed apart in the source

- binding [1]: binds
- binding [2]: binds
Molecule: eIF3H, a core subunit of the eIF3 complex (from UniProt O15372 1-352)

- binding [3]: binds
- binding [4]: binds
B1: PDCD4 (protein, UniProt Q53EL6 1-469)
chain: MDVENEQILNVNPADPDNLSDSLFSGDEENAGTEEIKNEINGNWISASSINEARINAKAKRRLRKNSSRDSGRGDSVSDSGSDALRSGLTVPTSPKGRLLDRRSRSGKGRGLPKKGGAGGKGVWGTPGQVYDVEEVDVKDPNYDDDQENCVYETVVLPLDERAFEKTLTPIIQEYFEHGDTNEVAEMLRDLNLGEMKSGVPVLAVSLALEGKASHREMTSKLLSDLCGTVMSTTDVEKSFDKLLKDLPELALDTPRAPQLVGQFIARAVGDGILCNTYIDSYKGTVDCVQARAALDKATVLLSMSKGGKRKDSVWGSGGGQQSVNHLVKEIDMLLKEYLLSGDISEAEHCLKELEVPHFHHELVYEAIIMVLESTGESTFKMILDLLKSLWKSSTITVDQMKRGYERIYNEIPDINLDVPHSYSVLERFVEECFQAGIISKQLRDLCPSRGRKRFVSEGDGGRLKPESY

— publication doi:10.1101/2025.06.21.660898
